In the supplement of paper PMC6411743:
± gives the standard deviation of the averaged measurements. This is a selection; strong and weak results do not stand in their true shares. Most entries show no effect beyond the scatter of the controls.

Chains of the proteins cited; added tags and fusions are not shown. Lines headed by an entry give the natural chain unless they say otherwise; changes in a name come on top.
UniProt P61923: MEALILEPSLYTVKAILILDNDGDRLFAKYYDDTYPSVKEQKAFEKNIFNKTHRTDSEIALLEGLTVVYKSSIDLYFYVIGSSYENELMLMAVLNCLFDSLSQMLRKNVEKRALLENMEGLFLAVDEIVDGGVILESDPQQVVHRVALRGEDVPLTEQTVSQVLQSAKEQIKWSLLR
UniProt O94868: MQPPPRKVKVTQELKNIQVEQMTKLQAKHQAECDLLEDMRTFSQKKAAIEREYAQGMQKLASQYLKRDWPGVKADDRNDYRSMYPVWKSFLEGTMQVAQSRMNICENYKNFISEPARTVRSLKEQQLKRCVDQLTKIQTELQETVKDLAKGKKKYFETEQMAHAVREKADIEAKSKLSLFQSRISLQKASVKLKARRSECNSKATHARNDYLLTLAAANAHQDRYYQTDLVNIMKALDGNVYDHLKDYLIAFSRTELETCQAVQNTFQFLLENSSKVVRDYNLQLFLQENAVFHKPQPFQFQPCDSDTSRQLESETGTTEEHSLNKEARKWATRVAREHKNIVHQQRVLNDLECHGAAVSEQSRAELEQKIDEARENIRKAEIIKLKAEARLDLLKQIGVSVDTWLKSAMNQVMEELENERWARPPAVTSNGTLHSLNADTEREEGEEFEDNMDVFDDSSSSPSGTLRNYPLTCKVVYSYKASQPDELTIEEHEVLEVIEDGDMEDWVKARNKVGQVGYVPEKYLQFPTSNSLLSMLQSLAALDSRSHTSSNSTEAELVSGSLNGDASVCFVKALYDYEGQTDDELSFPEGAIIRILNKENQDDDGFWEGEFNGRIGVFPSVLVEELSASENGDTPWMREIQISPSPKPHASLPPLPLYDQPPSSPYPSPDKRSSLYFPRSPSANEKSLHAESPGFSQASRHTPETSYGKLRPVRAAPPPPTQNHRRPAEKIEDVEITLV
UniProt P51825: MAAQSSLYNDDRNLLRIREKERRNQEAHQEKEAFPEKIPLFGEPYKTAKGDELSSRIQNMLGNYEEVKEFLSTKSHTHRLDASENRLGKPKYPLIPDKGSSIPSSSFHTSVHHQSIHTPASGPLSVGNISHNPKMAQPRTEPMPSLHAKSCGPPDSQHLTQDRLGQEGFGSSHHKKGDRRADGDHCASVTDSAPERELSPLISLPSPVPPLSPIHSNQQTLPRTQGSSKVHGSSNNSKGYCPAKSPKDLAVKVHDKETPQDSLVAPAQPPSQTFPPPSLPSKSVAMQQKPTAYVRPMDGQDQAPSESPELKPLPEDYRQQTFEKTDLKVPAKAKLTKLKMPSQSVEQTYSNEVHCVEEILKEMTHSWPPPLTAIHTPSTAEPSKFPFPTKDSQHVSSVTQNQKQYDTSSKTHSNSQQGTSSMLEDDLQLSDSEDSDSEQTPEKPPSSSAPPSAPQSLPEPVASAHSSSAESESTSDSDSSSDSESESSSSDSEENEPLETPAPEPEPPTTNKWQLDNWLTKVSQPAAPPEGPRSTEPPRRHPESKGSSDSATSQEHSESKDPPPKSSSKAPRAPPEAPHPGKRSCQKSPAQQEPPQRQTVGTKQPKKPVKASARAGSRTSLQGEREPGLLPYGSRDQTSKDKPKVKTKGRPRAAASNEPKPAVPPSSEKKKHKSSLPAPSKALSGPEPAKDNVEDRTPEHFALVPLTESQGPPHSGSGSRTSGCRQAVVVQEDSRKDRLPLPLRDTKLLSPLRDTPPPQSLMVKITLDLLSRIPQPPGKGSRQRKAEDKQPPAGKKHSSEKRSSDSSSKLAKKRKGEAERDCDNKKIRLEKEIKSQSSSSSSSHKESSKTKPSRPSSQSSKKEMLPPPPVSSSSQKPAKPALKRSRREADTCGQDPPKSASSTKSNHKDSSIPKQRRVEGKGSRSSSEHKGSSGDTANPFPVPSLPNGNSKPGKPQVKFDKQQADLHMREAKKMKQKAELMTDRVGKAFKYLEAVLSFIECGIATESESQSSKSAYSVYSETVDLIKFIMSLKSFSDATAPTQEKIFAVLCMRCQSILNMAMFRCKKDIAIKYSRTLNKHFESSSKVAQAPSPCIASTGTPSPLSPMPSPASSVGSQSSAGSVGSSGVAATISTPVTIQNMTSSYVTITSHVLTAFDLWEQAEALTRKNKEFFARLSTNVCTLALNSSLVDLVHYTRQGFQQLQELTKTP
UniProt P61803: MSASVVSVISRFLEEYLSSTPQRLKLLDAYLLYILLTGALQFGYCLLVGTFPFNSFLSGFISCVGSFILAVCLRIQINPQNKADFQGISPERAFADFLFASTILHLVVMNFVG
UniProt Q9Y4P3: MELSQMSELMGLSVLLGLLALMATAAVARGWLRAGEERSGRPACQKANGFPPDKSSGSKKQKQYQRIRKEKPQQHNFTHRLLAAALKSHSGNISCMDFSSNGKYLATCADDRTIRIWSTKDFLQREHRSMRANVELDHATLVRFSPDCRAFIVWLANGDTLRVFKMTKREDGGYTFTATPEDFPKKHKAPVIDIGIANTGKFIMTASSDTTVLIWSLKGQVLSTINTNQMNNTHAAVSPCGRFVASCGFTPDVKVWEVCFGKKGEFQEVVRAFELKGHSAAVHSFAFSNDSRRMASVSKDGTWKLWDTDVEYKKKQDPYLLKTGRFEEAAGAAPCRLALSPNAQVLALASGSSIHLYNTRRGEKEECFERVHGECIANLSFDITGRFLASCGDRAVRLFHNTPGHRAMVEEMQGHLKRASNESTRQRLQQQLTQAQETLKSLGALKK
UniProt Q8IWZ3: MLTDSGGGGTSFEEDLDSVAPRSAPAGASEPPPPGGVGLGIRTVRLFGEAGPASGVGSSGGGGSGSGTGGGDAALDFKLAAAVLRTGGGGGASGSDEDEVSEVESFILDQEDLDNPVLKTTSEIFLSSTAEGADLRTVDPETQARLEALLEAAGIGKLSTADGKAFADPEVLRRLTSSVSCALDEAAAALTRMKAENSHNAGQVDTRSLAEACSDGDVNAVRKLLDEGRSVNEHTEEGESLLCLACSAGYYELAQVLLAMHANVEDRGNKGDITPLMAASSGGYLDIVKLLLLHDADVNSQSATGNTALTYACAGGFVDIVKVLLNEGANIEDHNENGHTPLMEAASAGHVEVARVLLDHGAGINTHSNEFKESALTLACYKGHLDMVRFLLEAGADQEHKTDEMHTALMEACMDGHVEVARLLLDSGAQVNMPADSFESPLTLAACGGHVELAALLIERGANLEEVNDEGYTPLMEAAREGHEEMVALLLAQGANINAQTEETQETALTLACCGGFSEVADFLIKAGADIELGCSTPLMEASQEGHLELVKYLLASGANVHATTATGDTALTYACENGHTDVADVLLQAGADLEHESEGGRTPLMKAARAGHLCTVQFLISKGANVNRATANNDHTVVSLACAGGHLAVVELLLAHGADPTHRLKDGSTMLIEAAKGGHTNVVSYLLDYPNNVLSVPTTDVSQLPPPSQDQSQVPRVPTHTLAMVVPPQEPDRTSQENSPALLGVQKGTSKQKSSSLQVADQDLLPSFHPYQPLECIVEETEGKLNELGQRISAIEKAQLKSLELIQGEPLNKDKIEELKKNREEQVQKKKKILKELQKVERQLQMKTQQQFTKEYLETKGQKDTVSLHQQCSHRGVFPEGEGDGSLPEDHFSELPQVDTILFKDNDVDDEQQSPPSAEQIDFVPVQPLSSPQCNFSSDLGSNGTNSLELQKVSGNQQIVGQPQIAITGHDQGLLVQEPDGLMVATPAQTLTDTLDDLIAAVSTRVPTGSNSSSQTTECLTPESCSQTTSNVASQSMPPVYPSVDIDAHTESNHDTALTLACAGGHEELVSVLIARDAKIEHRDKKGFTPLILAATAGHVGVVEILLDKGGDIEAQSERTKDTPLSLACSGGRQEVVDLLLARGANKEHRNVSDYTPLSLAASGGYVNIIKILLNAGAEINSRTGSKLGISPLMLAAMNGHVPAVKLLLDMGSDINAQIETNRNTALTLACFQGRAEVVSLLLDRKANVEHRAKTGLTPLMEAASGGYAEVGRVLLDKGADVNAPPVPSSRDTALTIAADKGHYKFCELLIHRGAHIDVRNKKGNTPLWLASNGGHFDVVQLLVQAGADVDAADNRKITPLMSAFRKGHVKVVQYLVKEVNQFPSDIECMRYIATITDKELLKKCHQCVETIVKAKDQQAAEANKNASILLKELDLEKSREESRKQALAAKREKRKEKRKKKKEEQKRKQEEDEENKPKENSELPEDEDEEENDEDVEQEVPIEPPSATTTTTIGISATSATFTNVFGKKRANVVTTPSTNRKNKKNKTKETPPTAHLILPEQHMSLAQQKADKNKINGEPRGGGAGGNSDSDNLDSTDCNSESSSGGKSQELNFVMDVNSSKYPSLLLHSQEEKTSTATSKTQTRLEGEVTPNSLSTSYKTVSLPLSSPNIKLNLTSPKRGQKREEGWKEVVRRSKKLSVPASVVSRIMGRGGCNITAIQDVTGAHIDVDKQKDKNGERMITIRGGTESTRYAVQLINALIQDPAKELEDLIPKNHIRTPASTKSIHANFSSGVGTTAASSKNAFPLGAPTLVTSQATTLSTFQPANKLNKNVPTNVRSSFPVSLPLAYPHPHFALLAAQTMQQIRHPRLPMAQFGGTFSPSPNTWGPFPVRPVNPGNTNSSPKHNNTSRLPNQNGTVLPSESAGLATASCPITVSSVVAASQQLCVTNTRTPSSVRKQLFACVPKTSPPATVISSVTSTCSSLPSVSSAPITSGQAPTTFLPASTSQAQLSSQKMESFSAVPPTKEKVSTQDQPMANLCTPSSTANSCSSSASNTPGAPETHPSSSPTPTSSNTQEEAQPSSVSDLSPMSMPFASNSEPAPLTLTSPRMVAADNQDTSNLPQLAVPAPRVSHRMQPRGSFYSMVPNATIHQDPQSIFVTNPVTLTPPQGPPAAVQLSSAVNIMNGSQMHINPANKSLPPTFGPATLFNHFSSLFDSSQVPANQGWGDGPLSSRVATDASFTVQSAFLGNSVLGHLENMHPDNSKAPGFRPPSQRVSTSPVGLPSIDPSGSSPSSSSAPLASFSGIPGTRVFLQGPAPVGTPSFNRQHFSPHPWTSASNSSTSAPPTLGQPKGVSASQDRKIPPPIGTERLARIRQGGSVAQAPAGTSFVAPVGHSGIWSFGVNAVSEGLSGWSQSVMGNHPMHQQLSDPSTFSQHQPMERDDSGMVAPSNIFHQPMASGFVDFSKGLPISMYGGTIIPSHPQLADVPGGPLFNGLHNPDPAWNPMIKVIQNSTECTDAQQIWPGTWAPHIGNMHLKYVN
UniProt P78406: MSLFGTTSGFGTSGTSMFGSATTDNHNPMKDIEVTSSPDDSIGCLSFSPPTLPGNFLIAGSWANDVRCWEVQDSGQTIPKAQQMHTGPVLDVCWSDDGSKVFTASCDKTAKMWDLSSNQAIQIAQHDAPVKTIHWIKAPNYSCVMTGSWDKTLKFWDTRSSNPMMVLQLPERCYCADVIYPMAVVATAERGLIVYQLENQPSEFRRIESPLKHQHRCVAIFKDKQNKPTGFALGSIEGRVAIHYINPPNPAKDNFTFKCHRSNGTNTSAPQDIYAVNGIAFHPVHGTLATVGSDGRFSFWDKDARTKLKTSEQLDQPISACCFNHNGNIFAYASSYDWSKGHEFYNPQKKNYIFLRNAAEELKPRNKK
UniProt P49821, whole entry: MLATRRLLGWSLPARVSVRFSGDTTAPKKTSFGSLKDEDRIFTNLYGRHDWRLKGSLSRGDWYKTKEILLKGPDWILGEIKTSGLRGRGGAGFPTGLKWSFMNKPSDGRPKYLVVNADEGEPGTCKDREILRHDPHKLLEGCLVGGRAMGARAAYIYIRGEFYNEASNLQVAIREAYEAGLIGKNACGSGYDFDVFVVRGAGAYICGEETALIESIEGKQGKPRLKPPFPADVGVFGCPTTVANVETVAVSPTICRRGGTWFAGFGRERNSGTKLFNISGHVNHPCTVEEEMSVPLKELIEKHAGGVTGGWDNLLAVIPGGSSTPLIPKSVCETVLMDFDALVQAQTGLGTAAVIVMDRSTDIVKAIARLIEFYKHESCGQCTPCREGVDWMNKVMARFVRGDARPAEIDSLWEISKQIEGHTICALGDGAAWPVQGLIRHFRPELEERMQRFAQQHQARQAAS
UniProt Q92993, whole entry, looked up: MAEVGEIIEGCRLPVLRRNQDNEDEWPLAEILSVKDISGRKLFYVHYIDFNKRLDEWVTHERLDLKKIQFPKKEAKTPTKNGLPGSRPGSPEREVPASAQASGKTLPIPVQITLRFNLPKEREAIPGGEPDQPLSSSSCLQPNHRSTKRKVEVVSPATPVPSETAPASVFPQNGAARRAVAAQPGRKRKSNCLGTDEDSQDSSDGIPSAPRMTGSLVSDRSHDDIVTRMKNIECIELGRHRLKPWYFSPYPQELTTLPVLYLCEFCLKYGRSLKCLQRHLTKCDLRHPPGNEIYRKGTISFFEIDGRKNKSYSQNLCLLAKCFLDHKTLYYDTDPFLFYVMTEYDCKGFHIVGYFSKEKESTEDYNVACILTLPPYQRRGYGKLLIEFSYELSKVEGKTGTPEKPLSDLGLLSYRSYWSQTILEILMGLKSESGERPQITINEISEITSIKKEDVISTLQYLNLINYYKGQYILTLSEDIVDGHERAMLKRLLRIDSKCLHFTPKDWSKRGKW

Compound: Nc1ncnc2c1ncn2[C@@H]1O[C@H](COP(=O)(O)OP(=O)(O)OP(=O)(O)O)[C@@H](O)[C@H]1O [adenosine triphosphate]
Test: NP40-soluble protein abundance relative to vehicle (solubility fold change) (ratio); higher = more soluble protein in presence of ATP
Summary of the method: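 Data come from three independent experiments in which Dounce-homogenised Jurkat crude lysate was treated at eight concentrations from 0.1 to 10 mM. Treatment ran 10 min at room temperature and then 3 min at 37 °C, after which 0.8% NP40 and benzonase were added for 60 min at 4 °C before ultracentrifugation. The supernatant underwent TMT labelling and LC-MS/MS, and vsn-normalised intensities were expressed as fold change against the detergent-processed vehicle in each replicate.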

Row | Target | NP40-soluble protein abundance (concentration: 0.1mM) | NP40-soluble protein abundance (concentration: 0.5mM) | NP40-soluble protein abundance (concentration: 1mM) | NP40-soluble protein abundance (concentration: 2mM) | NP40-soluble protein abundance (concentration: 4mM) | NP40-soluble protein abundance (concentration: 6mM) | NP40-soluble protein abundance (concentration: 8mM) | NP40-soluble protein abundance (concentration: 10mM)
1 | F8VVA7 and related entries (UniProt P61923) | 1.02 ± 0.059 | 1.01 ± 0.11 | – | – | – | – | – | –
2 | F5GWA4 and related entries (UniProt Q9H3F6) | 1.1 ± 0.031 | 1.17 ± 0.049 | – | – | – | – | – | –
3 | E9PJZ7 and related entries (UniProt Q13136) | 1 ± 0.018 | 0.982 ± 0.024 | – | – | – | – | – | –
4 | F5H6I7 and related entries (UniProt Q6DD88) | 1.03 ± 0.051 | 1.06 ± 0.058 | – | – | – | – | – | –
5 | E7ERD7 and related entries (UniProt Q9UKU0) | 1.03 ± 0.027 | 1.07 ± 0.013 | – | – | – | – | – | –
6 | E9PPG8 and related entries (UniProt Q53FT3) | 1.04 ± 0.15 | 1.01 ± 0.12 | – | – | – | – | – | –
7 | E9PG19 and related entries (UniProt O94868) | 1.01 ± 0.025 | 1 ± 0.048 | – | – | – | – | – | –
8 | F5H5I6 and related entries (UniProt Q12849) | 1.01 ± 0.04 | 1.03 ± 0.042 | – | – | – | – | – | –
9 | E9PF16 and related entries (UniProt Q96CM8) | 1.03 ± 0.033 | 1.03 ± 0.051 | – | – | – | – | – | –
10 | F5GXF9 and related entries (UniProt P51825) | 0.992 ± 0.11 | 0.984 ± 0.14 | – | – | – | – | – | –
11 | E5RHA3 and related entries (UniProt Q86X53) | 0.932 ± 0.089 | 0.9204 ± 0.0029 | – | – | – | – | – | –
12 | E9PC47 and related entries (UniProt P53667) | 0.975 ± 0.057 | 0.867 ± 0.12 | – | – | – | – | – | –
13 | F5GXX5 and related entries (UniProt P61803) | 0.8713 ± 0.0032 | 0.931 ± 0.044 | – | – | – | – | – | –
14 | G3XAH6 and related entries (UniProt P51003) | 1 ± 0.034 | 1.02 ± 0.018 | – | – | – | – | – | –
15 | F6V2D4 and related entries (UniProt O00214) | 0.98 ± 0.026 | 1.01 ± 0.057 | – | – | – | – | – | –
16 | F8VRH0 and related entries (UniProt Q15366) | 0.979 ± 0.029 | 1.02 ± 0.031 | – | – | – | – | – | –
17 | E9PF19 and related entries (UniProt Q9Y4P3) | 1.05 ± 0.053 | 1.1 ± 0.024 | – | – | – | – | – | –

Excerpt: entries 6–12
Row | Target | NP40-soluble protein abundance (concentration: 0.1mM) | NP40-soluble protein abundance (concentration: 0.5mM) | NP40-soluble protein abundance (concentration: 1mM) | NP40-soluble protein abundance (concentration: 2mM) | NP40-soluble protein abundance (concentration: 4mM) | NP40-soluble protein abundance (concentration: 6mM) | NP40-soluble protein abundance (concentration: 8mM) | NP40-soluble protein abundance (concentration: 10mM)
6 | E9PPG8 and related entries (UniProt Q53FT3) | 1.04 ± 0.15 | 1.01 ± 0.12 | – | – | – | – | – | –
7 | E9PG19 and related entries (UniProt O94868) | 1.01 ± 0.025 | 1 ± 0.048 | – | – | – | – | – | –
8 | F5H5I6 and related entries (UniProt Q12849) | 1.01 ± 0.04 | 1.03 ± 0.042 | – | – | – | – | – | –
9 | E9PF16 and related entries (UniProt Q96CM8) | 1.03 ± 0.033 | 1.03 ± 0.051 | – | – | – | – | – | –
10 | F5GXF9 and related entries (UniProt P51825) | 0.992 ± 0.11 | 0.984 ± 0.14 | – | – | – | – | – | –
11 | E5RHA3 and related entries (UniProt Q86X53) | 0.932 ± 0.089 | 0.9204 ± 0.0029 | – | – | – | – | – | –
12 | E9PC47 and related entries (UniProt P53667) | 0.975 ± 0.057 | 0.867 ± 0.12 | – | – | – | – | – | –

Next entries.

Row | Target | NP40-soluble protein abundance (concentration: 0.1mM) | NP40-soluble protein abundance (concentration: 0.5mM) | NP40-soluble protein abundance (concentration: 1mM) | NP40-soluble protein abundance (concentration: 2mM) | NP40-soluble protein abundance (concentration: 4mM) | NP40-soluble protein abundance (concentration: 6mM) | NP40-soluble protein abundance (concentration: 8mM) | NP40-soluble protein abundance (concentration: 10mM)
18 | E9PDP5 and related entries (UniProt Q8IWZ3) | 0.996 ± 0.018 | 0.967 ± 0.024 | – | – | – | – | – | –
19 | E9PL57 and related entries (UniProt Q15843) | 0.878 ± 0.14 | 0.88 ± 0.11 | – | – | – | – | – | –
20 | F5GX09 and related entries (UniProt Q5HYJ3) | 0.9711 ± 0.008 | 0.97 ± 0.011 | – | – | – | – | – | –
21 | E9PQ57 and related entries (UniProt P78406) | 1.02 ± 0.055 | 1.06 ± 0.042 | – | – | – | – | – | –
22 | E7ET89 and related entries (UniProt Q86UW9) | 0.969 ± 0.1 | 1.011 ± 0.0029 | 0.936 ± 0.2 | 1.09 ± 0.15 | 1.05 ± 0.11 | 1.04 ± 0.039 | 1.03 ± 0.086 | 1.04 ± 0.035
23 | F5H527 and related entries (UniProt Q76I76) | 1.02 ± 0.04 | 0.997 ± 0.076 | 0.984 ± 0.012 | 1 ± 0.016 | 0.993 ± 0.03 | 0.997 ± 0.013 | 0.978 ± 0.037 | 0.995 ± 0.062
24 | G3V0I5 and related entries (UniProt P49821) | 1.01 ± 0.059 | 0.988 ± 0.055 | 0.986 ± 0.025 | 0.96 ± 0.02 | 0.944 ± 0.033 | 0.94 ± 0.056 | 0.962 ± 0.052 | 0.953 ± 0.046
25 | E9PJI1 and related entries (UniProt Q92993) | 0.999 ± 0.073 | 1 ± 0.13 | 1.06 ± 0.12 | 0.959 ± 0.11 | 1.13 ± 0.17 | 1.1 ± 0.19 | 1.06 ± 0.21 | 1.13 ± 0.1
26 | G3XAG1 and related entries (UniProt Q96ME7) | 1.05 ± 0.057 | 1.27 ± 0.052 | 1.34 ± 0.038 | 1.407 ± 0.0052 | 1.58 ± 0.019 | 1.71 ± 0.061 | 1.88 ± 0.046 | 2.06 ± 0.081
27 | G3V0H0 and related entries (UniProt O43913) | 1.05 ± 0.11 | 1.06 ± 0.099 | 1.03 ± 0.12 | 1.01 ± 0.097 | 1.02 ± 0.08 | 1 ± 0.13 | 1.08 ± 0.078 | 1.02 ± 0.061
28 | E9PRY8 and related entries (UniProt P29692) | 0.949 ± 0.053 | 0.915 ± 0.05 | 0.959 ± 0.054 | 0.931 ± 0.034 | 0.894 ± 0.03 | 0.912 ± 0.091 | 0.88 ± 0.042 | 0.865 ± 0.015
29 | E9PB61 and related entries (UniProt Q86V81) | 0.936 ± 0.065 | 0.945 ± 0.099 | 1.04 ± 0.094 | 1.09 ± 0.07 | 1.22 ± 0.13 | 1.44 ± 0.15 | 1.53 ± 0.13 | 1.66 ± 0.24
30 | F8WCD0 and related entries (UniProt Q8NC42) | 1.04 ± 0.057 | 1.02 ± 0.14 | 0.964 ± 0.023 | 0.992 ± 0.013 | 1.08 ± 0.076 | 1.03 ± 0.029 | 0.945 ± 0.021 | 1 ± 0.076
31 | E5RFJ1 and related entries (UniProt Q96MF7) | 1.02 ± 0.039 | 1.02 ± 0.036 | 1.04 ± 0.053 | 1.04 ± 0.012 | 1.03 ± 0.017 | 1.09 ± 0.036 | 1.01 ± 0.018 | 1 ± 0.034
32 | F5GY05 and related entries (UniProt Q96EK7) | 1.01 ± 0.013 | 1.04 ± 0.044 | 1.03 ± 0.013 | 1.0493 ± 0.001 | 1.07 ± 0.017 | 1.06 ± 0.06 | 1.07 ± 0.02 | 1.08 ± 0.052
33 | E9PEN0 and related entries (UniProt Q8WYH8) | 0.906 ± 0.13 | 1.16 ± 0.2 | 1.15 ± 0.2 | 1.3 ± 0.29 | 1.36 ± 0.18 | 1.5 ± 0.16 | 1.85 ± 0.6 | 1.86 ± 0.39
